# Library screening results

Sequences of proteins named here, by UniProt entry; tags and fusion partners are left off.
UniProt E9BF75, entry or part of it: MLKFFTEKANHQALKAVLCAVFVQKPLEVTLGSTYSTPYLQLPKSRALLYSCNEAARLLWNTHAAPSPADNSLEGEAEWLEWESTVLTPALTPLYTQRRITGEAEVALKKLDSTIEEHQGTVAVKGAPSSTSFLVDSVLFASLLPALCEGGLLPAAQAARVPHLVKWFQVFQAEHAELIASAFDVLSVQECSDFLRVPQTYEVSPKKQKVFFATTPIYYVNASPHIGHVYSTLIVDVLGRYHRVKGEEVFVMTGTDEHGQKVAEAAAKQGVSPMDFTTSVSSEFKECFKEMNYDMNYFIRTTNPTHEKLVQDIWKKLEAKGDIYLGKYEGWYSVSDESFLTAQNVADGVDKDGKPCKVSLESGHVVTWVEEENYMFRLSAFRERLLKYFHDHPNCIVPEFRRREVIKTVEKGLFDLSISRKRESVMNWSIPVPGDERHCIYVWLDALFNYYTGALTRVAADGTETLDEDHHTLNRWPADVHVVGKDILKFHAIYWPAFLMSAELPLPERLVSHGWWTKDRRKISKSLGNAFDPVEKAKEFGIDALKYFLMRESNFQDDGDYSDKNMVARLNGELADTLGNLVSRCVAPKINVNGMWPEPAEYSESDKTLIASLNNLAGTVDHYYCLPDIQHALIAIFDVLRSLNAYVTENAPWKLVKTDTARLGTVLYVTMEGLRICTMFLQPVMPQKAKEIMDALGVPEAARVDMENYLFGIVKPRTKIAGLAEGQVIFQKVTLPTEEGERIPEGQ

LdMetRS: 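Methionyl-tRNA synthetase (putative), Leishmania donovani (UniProt E9BF75). Primary screen of methionyl-tRNA synthetase; the read-out is not stated. The test concentration is not given. Values are per cent inhibition. About 68,000 compounds were tested under these conditions; 0.035% (about 24) showed 50% or more at least once.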
Mtb heat-shock: 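Assay on Mycobacterium tuberculosis, filed only as a heat shock assay from Cornell; the read-out is not stated. The concentration is filed as 10 mM, unlikely as a test dose, so the dose is not known. Direction is inferred from retests: higher values go with stronger inhibition. Size under these conditions: about 69,000 compounds, about 930 of them at 50% or above in at least one test.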

All values are in %.
The record does not define 0% and 100%; most values in the screen are far below 50% and negative numbers occur (in some assays of this library far below -100).
This is an unselected part of the compounds tested.

{"smiles": "COc1ccc(CN(C)[C@@H]2CN(C(=O)c3cnn(C)c3)C[C@H]2O)cc1", "LdMetRS": 20.31, "Mtb heat-shock": -6.495}
{"smiles": "CCNc1ncc(C(=O)N(C)C(C)c2ccc3c(c2)OCCO3)cn1", "stereo": "stereo not drawn", "LdMetRS": 8.125, "Mtb heat-shock": -40.64}
{"smiles": "Nc1nc2nc(C3CCN(C(=O)c4cscn4)C3)ccc2s1", "stereo": "stereo not drawn", "LdMetRS": 10.17, "Mtb heat-shock": -19.83}
{"smiles": "Cc1noc(C)c1CN1CCC2(CCN(Cc3cccc(F)c3)CC2)C1", "LdMetRS": 10.91}
{"smiles": "[H][C@@]12C[C@H](C(=O)NC(C)C)[C@@]([H])(CN(C(=O)NCc3ccccc3)C1)O2", "Mtb heat-shock": -5.754}
{"smiles": "CC(CNCc1ccc(Cl)c(Cl)c1)Oc1ccccn1", "stereo": "stereo not drawn", "LdMetRS": 2.905}
{"smiles": "Cc1c(Br)cccc1C(=O)NCCC1CCCNC1.Cl", "stereo": "stereo not drawn", "Mtb heat-shock": -17.07}
{"smiles": "COc1ccc(C(=O)NS(=O)(=O)c2cc(Cl)sc2Cl)cc1OC(F)F", "LdMetRS": 16.98, "Mtb heat-shock": -0.4714}
{"smiles": "Cc1[nH]ncc1C(=O)NCC1CCC2(CC1)OCCO2", "LdMetRS": 9.511, "Mtb heat-shock": -17.35}
{"smiles": "c1ccc(NC[C@@H]2CCC[C@@H]3CN(Cc4cccnc4)C[C@@H]32)nc1", "LdMetRS": 8.168}
{"smiles": "CCNS(=O)(=O)c1cccc(CSC)c1", "LdMetRS": 0.2481, "Mtb heat-shock": 2.29}
{"smiles": "CC(C1CC1)N(CC(=O)NC(=O)NC1CC1)C1CC1", "stereo": "stereo not drawn", "LdMetRS": 10.05, "Mtb heat-shock": -20.64}
{"smiles": "CC(=O)N1CCCN(C2CCCCc3ccccc32)CC1", "stereo": "stereo not drawn", "LdMetRS": 15.53, "Mtb heat-shock": 8.69}
{"smiles": "Cc1ccc(C(=O)N2CCCN(Cc3cccs3)CC2)c(=O)[nH]1", "LdMetRS": 19.7, "Mtb heat-shock": 14.01}
{"smiles": "Oc1ccc(N2CCN(Cc3ccc(F)cc3Br)CC2)cc1", "LdMetRS": 21.35, "Mtb heat-shock": 4.825}
{"smiles": "O=S(=O)(Nc1ccccn1)c1cc(Cl)cc2c1OCC2", "LdMetRS": 5.797, "Mtb heat-shock": 16.61}
{"smiles": "O=c1cc2c(nn1CN1CCOCC1)CCC2", "LdMetRS": 17.01, "Mtb heat-shock": 23.92}
{"smiles": "COc1ccc(S(=O)(=O)NC(=O)C(C)OC)c(OC)c1", "stereo": "stereo not drawn", "LdMetRS": 10.64, "Mtb heat-shock": -2.779}
{"smiles": "O=C(CC1CC1)N[C@@H]1CN(Cc2ccc(F)cc2)C[C@@H]2CCCO[C@@H]21", "LdMetRS": 12.59}
{"smiles": "Cc1cn(-c2ccccc2)nc1NS(=O)(=O)c1cc(C(=O)O)sc1C", "LdMetRS": 10.36, "Mtb heat-shock": 16.39}
{"smiles": "COc1ccc(NC(=O)c2cnc(C3CCN(C(C)=O)C3)nc2C)cc1", "stereo": "stereo not drawn", "LdMetRS": 5.814, "Mtb heat-shock": -4.712}
{"smiles": "COc1ccc(F)c(CN(CCCn2ccnc2)Cc2ccc(C)s2)c1", "LdMetRS": 3.859}
{"smiles": "O=C1N(c2ccsc2)CCC12CCCN(CC1CC1)C2", "stereo": "stereo not drawn", "LdMetRS": 20.88}
{"smiles": "Cn1cc(CN2CCn3cc(CNC(=O)CC4CC4)nc3C2)cn1.O=C(O)C(F)(F)F", "Mtb heat-shock": -5.156}
{"smiles": "[H][C@]12CCN(C(=O)c3ccoc3)[C@@]1([H])CC[C@@H](COCc1ccccn1)O2", "Mtb heat-shock": 2.703}
{"smiles": "CCSCCNC(=O)Nc1cc(C(=O)N2CCOCC2)ccc1Cl", "LdMetRS": 5.722, "Mtb heat-shock": 8.178}
{"smiles": "CCC1CN(CC(=O)NCCN(CC)CC)c2ccccc2S1", "stereo": "stereo not drawn", "LdMetRS": 16.28, "Mtb heat-shock": 12.75}
{"smiles": "Cc1ccc(CN2CCOC3(COCCN(C(C)C)C3)C2)s1.O=C(O)C(F)(F)F.O=C(O)C(F)(F)F", "stereo": "stereo not drawn", "Mtb heat-shock": -21.34}
{"smiles": "Cc1ccc(CN2CCn3cc(CN4CCN(C)CC4)nc3C2)cc1.O=C(O)C(F)(F)F.O=C(O)C(F)(F)F.O=C(O)C(F)(F)F", "Mtb heat-shock": -4.711}
{"smiles": "Cc1ccc(CN2CCS(=O)(=O)C(C)(C)C2)cc1C", "LdMetRS": 10.79, "Mtb heat-shock": -13.76}
{"smiles": "CSCCCN(CCN1CCOCC1)Cc1ccco1", "LdMetRS": 13.32, "Mtb heat-shock": -19}
{"smiles": "Cc1cc(N(C)C)nc(NCCn2cccn2)n1", "LdMetRS": 2.419, "Mtb heat-shock": -18.34}
{"smiles": "CN(C(=O)CCc1ccncc1)C1CCCN(CCc2ccccc2)C1", "stereo": "stereo not drawn", "LdMetRS": 6.406, "Mtb heat-shock": -17.73}
{"smiles": "CC(C)c1nnc(CNc2ccc(SC(F)(F)F)cc2)o1", "LdMetRS": 7.343, "Mtb heat-shock": 27.34}
{"smiles": "COCc1cnc2n1CCN(C(=O)c1ccc3ccccc3n1)C2C.O=C(O)C(F)(F)F", "stereo": "stereo not drawn", "Mtb heat-shock": 0.2531}
{"smiles": "COc1ccc(CC(C)Nc2cccc(SC)c2)cc1", "stereo": "stereo not drawn", "LdMetRS": 17.78, "Mtb heat-shock": 13.42}
{"smiles": "O=C(c1cscn1)N1C[C@@H]2C[C@@H](c3nnc(C4CC4)o3)O[C@@H]2C1", "LdMetRS": 14.71}
{"smiles": "CN(C)C1(CNC(=O)Cc2ccc(F)cc2)CCOCC1", "LdMetRS": 14.8, "Mtb heat-shock": 1.704}
{"smiles": "CC(C)COC1CCN(S(=O)(=O)Cc2cccc(F)c2)CC1", "LdMetRS": 5.915, "Mtb heat-shock": 8.115}
{"smiles": "CC1c2cc(F)ccc2CCN1CCS(=O)(=O)C(C)C", "stereo": "stereo not drawn", "LdMetRS": 15.07, "Mtb heat-shock": -4.217}
{"smiles": "COCCCNC(=O)CN1CCCC1c1c(C)nn(C)c1Cl", "stereo": "stereo not drawn", "LdMetRS": 14.58, "Mtb heat-shock": -19.1}
{"smiles": "O=S(=O)(c1c(Cl)nc2sccn12)N1CCC2(CCNCC2)C1", "LdMetRS": 12.58, "Mtb heat-shock": -23.88}
{"smiles": "CN(C)C(=O)Cc1ccccc1NCc1cccc2cccnc12", "LdMetRS": 9.938, "Mtb heat-shock": -1.819}

From ChEMBL document CHEMBL3988442, “University of Dundee, Small-Polar-MMV Screening Library” (2021).